These are yes or no findings as the source states them, for the method shown. Binding seen in cells or lysates may run through a third protein. These calls come from enrichment with a bait or labelling near it, and not all partners need be listed.
B1: GM130 (protein, UniProt Q08379 1-1002)
chain: MWPQPRLPPRPAMSEETRQSKLAAAKKKLREYQQRNSPGVPTGAKKKKKIKNGSNPETTTSGGCHSPEDTPKDNAATLQPSDDTVLPGGVPSPGASLTSMAASQNHDADNVPNLMDETKTFSSTESLRQLSQQLNGLVCESATCVNGEGPASSANLKDLESRYQQLAVALDSSYVTNKQLNITIEKLKQQNQEITDQLEEEKKECHQKQGALREQLQVHIQTIGILVSEKAELQTALAHTQHAARQKEGESEDLASRLQYSRRRVGELERALSAVSTQQKKADRYNKELTKERDALRLELYKNTQSNEDLKQEKSELEEKLRVLVTEKAGMQLNLEELQKKLEMTELLLQQFSSRCEAPDANQQLQQAMEERAQLEAHLGQVMESVRQLQMERDKYAENLKGESAMWRQRMQQMSEQVHTLREEKECSMSRVQELETSLAELRNQMAEPPPPEPPAGPSEVEQQLQAEAEHLRKELEGLAGQLQAQVQDNEGLSRLNREQEERLLELERAAELWGEQAEARRQILETMQNDRTTISRALSQNRELKEQLAELQSGFVKLTNENMEITSALQSEQHVKRELGKKLGELQEKLSELKETVELKSQEAQSLQQQRDQYLGHLQQYVAAYQQLTSEKEVLHNQLLLQTQLVDQLQQQEAQGKAVAEMARQELQETQERLEAATQQNQQLRAQLSLMAHPGEGDGLDREEEEDEEEEEEEAVAVPQPMPSIPEDLESREAMVAFFNSAVASAEEEQARLRGQLKEQRVRCRRLAHLLASAQKEPEAAAPAPGTGGDSVCGETHRALQGAMEKLQSRFMELMQEKADLKERVEELEHRCIQLSGETDTIGEYIALYQSQRAVLKERHREKEEYISRLAQDKEEMKVKLLELQELVLRLVGDRNEWHGRFLAAAQNPADEPTSGAPAPQELGAANQQGDLCEVSLAGSVEPAQGEAREGSPRDNPTAQQIMQLLREMQNPRERPGLGSNPCIPFFYRADENDEVKITVI

The chains behind the UniProt entries cited, without tags or fusion partners.
UniProt Q9BQQ3: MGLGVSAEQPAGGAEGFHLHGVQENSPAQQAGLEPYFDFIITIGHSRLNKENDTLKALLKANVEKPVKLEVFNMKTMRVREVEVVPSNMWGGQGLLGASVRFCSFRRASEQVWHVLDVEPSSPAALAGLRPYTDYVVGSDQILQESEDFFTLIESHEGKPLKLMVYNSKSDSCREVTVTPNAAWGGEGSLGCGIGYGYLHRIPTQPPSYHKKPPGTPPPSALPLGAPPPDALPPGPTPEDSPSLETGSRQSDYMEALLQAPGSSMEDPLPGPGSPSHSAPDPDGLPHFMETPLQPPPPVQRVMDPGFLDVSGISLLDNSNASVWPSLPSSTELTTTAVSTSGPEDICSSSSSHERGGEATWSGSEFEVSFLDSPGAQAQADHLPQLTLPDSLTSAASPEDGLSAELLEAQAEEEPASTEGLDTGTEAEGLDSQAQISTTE
UniProt P51114: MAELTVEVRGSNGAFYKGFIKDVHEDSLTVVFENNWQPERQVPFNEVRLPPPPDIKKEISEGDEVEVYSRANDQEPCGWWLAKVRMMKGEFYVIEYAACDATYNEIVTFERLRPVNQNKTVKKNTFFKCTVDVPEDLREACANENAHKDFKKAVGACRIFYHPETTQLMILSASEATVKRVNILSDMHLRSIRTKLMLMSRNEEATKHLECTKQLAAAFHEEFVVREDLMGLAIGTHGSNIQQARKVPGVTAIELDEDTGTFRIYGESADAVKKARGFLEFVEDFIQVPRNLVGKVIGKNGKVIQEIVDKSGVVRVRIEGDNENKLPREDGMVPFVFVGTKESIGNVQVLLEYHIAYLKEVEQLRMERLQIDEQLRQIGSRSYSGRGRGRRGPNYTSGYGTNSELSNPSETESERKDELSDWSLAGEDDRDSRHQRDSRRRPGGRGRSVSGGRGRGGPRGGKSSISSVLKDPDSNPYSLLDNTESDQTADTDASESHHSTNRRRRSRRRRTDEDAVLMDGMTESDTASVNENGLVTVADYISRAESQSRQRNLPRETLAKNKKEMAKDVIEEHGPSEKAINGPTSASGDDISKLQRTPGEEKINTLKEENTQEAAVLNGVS
UniProt Q13283: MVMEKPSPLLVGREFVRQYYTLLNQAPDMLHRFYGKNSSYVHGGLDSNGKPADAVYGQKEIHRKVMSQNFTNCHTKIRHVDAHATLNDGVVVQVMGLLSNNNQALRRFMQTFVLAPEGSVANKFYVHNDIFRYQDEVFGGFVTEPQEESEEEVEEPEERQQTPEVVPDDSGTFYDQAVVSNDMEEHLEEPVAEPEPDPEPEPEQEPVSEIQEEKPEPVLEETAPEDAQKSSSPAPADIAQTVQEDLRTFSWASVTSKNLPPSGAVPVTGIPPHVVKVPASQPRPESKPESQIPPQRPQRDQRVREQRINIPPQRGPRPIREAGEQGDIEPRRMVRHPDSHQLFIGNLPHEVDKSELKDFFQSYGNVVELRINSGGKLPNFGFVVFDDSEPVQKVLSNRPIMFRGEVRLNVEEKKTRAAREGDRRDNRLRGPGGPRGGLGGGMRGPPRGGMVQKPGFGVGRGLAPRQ
UniProt P11940: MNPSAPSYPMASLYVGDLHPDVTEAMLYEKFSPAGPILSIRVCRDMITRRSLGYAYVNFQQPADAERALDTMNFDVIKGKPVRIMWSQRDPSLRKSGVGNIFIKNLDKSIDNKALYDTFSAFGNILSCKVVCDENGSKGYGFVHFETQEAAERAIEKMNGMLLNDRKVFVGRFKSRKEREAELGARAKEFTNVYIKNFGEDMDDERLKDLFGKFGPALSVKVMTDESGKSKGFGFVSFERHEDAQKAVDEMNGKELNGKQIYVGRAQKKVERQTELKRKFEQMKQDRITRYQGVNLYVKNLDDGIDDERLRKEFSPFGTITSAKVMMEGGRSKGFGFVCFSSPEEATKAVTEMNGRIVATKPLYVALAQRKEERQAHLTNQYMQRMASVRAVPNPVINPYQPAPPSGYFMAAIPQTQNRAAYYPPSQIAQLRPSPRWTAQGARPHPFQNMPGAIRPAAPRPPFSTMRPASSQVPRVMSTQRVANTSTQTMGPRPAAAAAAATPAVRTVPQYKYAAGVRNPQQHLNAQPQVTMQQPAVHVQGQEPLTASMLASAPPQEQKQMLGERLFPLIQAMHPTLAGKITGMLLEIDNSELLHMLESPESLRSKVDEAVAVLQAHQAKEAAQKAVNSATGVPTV

Target: GRASP65-3xFlag-mAID (human (endogenous in RC65, SV589-derived)) (UniProt Q9BQQ3)
Experiment: affinity purification with mass spectrometry

binding, binds:
FXR1 (Fragile X mental retardation syndrome-related protein 1) (from UniProt P51114 1-621)
G3BP1 (G3BP Stress Granule Assembly Factor 1) (from UniProt Q13283 1-466)
PABPC1 (PABP/Polyadenylate-binding protein 1) (from UniProt P11940 1-636)
B1
